Tested on: BAF complex subunits and histone proteins
Experiment: Mass spectrometry proteomics of purified HA-SS18 WT and HA-SS18-SSX1 complexes (Tables 5A-5E)
Parameters: species or system human
Details: HEK-293T; for Total (total peptides) / Unique (unique peptides): HA-SS18SSX1 purification, NE (soluble nuclear extract) fraction, peptides per identified protein
[1] = HA-SS18WT_NE_peptides: HA-SS18 WT complexes purified from nuclear extract (NE), label = protein identified (Gene Symbol)
[2] = HA-SS18WT_NE_peptides: proteins co-purified with HA-SS18 WT from nuclear extract (NE)

Molecule | Total (total peptides) | Unique (unique peptides) | Total (peptides) [1] | Unique (peptides) [1] | Total (peptides) [2] | Unique (peptides) [2]
CPT1A (protein, UniProt P50416 2-773, looked up) Carnitine …: AEAHQAVAFQFTVTPDGIDLRLSHEALRQIYLSGLHSWKKKFIRFKNGIITGVYPASPSSWLIVVVGVMTTMYAKIDPSLGIIAKINRTLETANCMSSQTKNVVSGVLFGTGLWVALIVTMRYSLKVLLSYHGWMFTEHGKMSRATKIWMGMVKIFSGRKPMLYSFQTSLPRLPVPAVKDTVNRYLQSVRPLMKEEDFKRMTALAQDFAVGLGPRLQWYLKLKSWWATNYVSDWWEEYIYLRGRGPLMVNSNYYAMDLLYILPTHIQAARAGNAIHAILLYRRKLDREEIKPIRLLGSTIPLCSAQWERMFNTSRIPGEETDTIQHMRDSKHIVVYHRGRYFKVWLYHDGRLLKPREMEQQMQRILDNTSEPQPGEARLAALTAGDRVPWARCRQAYFGRGKNKQSLDAVEKAAFFVTLDETEEGYRSEDPDTSMDSYAKSLLHGRCYDRWFDKSFTFVVFKNGKMGLNAEHSWADAPIVAHLWEYVMSIDSLQLGYAEDGHCKGDINPNIPYPTRLQWDIPGECQEVIETSLNTANLLANDVDFHSFPFVAFGKGIIKKCRTSPDAFVQLALQLAHYKDMGKFCLTYEASMTRLFREGRTETVRSCTTESCDFVRAMVDPAQTVEQRLKLFKLASEKHQHMYRLAMTGSGIDRHLFCLYVVSKYLAVESPFLKEVLSEPWRLSTSQTPQQQVELFDLENNPEYVSSGGGFGPVADDGYGVSYILVGENLINFHISSKFSCPETDSHRFGRHLKEAMTDIITLFGLSSNSKK | 6 | 4 | 6 | 6 | – | –
IARS2 (protein, UniProt Q9NSE4 49-1012, looked up) Isoleucine--tRNA ligase, …: SNHQPNSNSGRYRDTVLLPQTSFPMKLLGRQQPDTELEIQQKCGFSELYSWQRERKVKTEFCLHDGPPYANGDPHVGHALNKILKDIANRFHMMNGSKIHFVPGWDCHGLPIEIKVLSELGREAQNLSAMEIRKKARSFAKAAIEKQKSAFIRWGIMADWNNCYYTFDGKYEAKQLRTFYQMYDKGLVYRSYKPVFWSPSSRTALAEAELEYNPEHVSRSIYVKFPLLKPSPKLASLIDGSSPVSILVWTTQPWTIPANEAVCYMPESKYAVVKCSKSGDLYVLAADKVASVASTLETTFETISTLSGVDLENGTCSHPLIPDKASPLLPANHVTMAKGTGLVHTAPAHGMEDYGVASQHNLPMDCLVDEDGVFTDVAGPELQNKAVLEEGTDVVIKMLQTAKNLLKEEKLVHSYPYDWRTKKPVVIRASKQWFINITDIKTAAKELLKKVKFIPGSALNGMVEMMDRRPYWCISRQRVWGVPIPVFHHKTKDEYLINSQTTEHIVKLVEQHGSDIWWTLPPEQLLPKEVLSEVGGPDALEYVPGQDILDIWFDSGTSWSYVLPGPDQRADLYLEGKDQLGGWFQSSLLTSVAARKRAPYKTVIVHGFTLGEKGEKMSKSLGNVIHPDVVVNGGQDQSKEPPYGADVLRWWVADSNVFTEVAIGPSVLNAARDDISKLRNTLRFLLGNVADFNPETDSIPVNDMYVIDQYMLHLLQDLANKITELYKQYDFGKVVRLLRTFYTRELSNFYFSIIKDRLYCEKENDPKRRSCQTALVEILDVIVRSFAPILPHLAEEVFQHIPYIKEPKSVFRTGWISTSSIWKKPGLEEAVESACAMRDSFLGSIPGKNAAEYKVITVIEPGLLFEIIEMLQSEETSSTSQLNELMMASESTLLAQEPREMTADVIELKGKFLINLEGGDIREESSYKVIVMPTTKEKCPRCWKYTAESSDTLCPRCAEVVSGK | 5 | 5 | 4 | 4 | – | –
BSG (protein, UniProt P35613 22-385, looked up) Basigin: AAGFVQAPLSQQRWVGGSVELHCEAVGSPVPEIQWWFEGQGPNDTCSQLWDGARLDRVHIHATYHQHAASTISIDTLVEEDTGTYECRASNDPDRNHLTRAPRVKWVRAQAVVLVLEPGTVFTTVEDLGSKILLTCSLNDSATEVTGHRWLKGGVVLKEDALPGQKTEFKVDSDDQWGEYSCVFLPEPMGTANIQLHGPPRVKAVKSSEHINEGETAMLVCKSESVPPVTDWAWYKITDSEDKALMNGSESRFFVSSSQGRSELHIENLNMEADPGQYRCNGTSSKGSDQAIITLRVRSHLAALWPFLGIVAEVLVLVTIIFIYEKRRKPEDVLDDDDAGSAPLKSSGQHQNDKGKNVRQRNSS | 5 | 5 | – | – | 2 | 2
TMEM165 (protein, UniProt Q9HC07 34-324, looked up) Putative divalent …: GPDEDLSHRNKEPPAPAQQLQPQPVAVQGPEPARVEKIFTPAAPVHTNKEDPATQTNLGFIHAFVAAISVIIVSELGDKTFFIAAIMAMRYNRLTVLAGAMLALGLMTCLSVLFGYATTVIPRVYTYYVSTVLFAIFGIRMLREGLKMSPDEGQEELEEVQAELKKKDEEFQRTKLLNGPGDVETGTSITVPQKKWLHFISPIFVQALTLTFLAEWGDRSQLTTIVLAAREDPYGVAVGGTVGHCLCTGLAVIGGRMIAQKISVRTVTIIGGIVFLAFAFSALFISPDSGF | 5 | 5 | 4 | 4 | – | –
MAN1B1 (protein, UniProt Q9UKM7 1-699, looked up) Endoplasmic reticulum …: MAACEGRRSGALGSSQSDFLTPPVGGAPWAVATTVVMYPPPPPPPHRDFISVTLSFGENYDNSKSWRRRSCWRKWKQLSRLQRNMILFLLAFLLFCGLLFYINLADHWKALAFRLEEEQKMRPEIAGLKPANPPVLPAPQKADTDPENLPEISSQKTQRHIQRGPPHLQIRPPSQDLKDGTQEEATKRQEAPVDPRPEGDPQRTVISWRGAVIEPEQGTELPSRRAEVPTKPPLPPARTQGTPVHLNYRQKGVIDVFLHAWKGYRKFAWGHDELKPVSRSFSEWFGLGLTLIDALDTMWILGLRKEFEEARKWVSKKLHFEKDVDVNLFESTIRILGGLLSAYHLSGDSLFLRKAEDFGNRLMPAFRTPSKIPYSDVNIGTGVAHPPRWTSDSTVAEVTSIQLEFRELSRLTGDKKFQEAVEKVTQHIHGLSGKKDGLVPMFINTHSGLFTHLGVFTLGARADSYYEYLLKQWIQGGKQETQLLEDYVEAIEGVRTHLLRHSEPSKLTFVGELAHGRFSAKMDHLVCFLPGTLALGVYHGLPASHMELAQELMETCYQMNRQMETGLSPEIVHFNLYPQPGRRDVEVKPADRHNLLRPETVESLFYLYRVTGDRKYQDWGWEILQSFSRFTRVPSGGYSSINNVQDPQKPEPRDKMESFFLGETLKYLFLLFSDDPNLLSLDAYVFNTEAHPLPIWTPA | 5 | 5 | 3 | 3 | – | –

From patent US20250283871A1, “COMPOSITIONS AND METHODS FOR MODULATING THE INTERACTION BETWEEN SS18-SSX FUSION ONCOPROTEIN AND NUCLEOSOMES” (Dana-Farber Cancer Institute, Inc., priority 2020, published 2025)
